# Assay results: patent US7851493B2, “Phenyl-1,2,4-oxadiazolone derivatives with phenyl group, processes for their preparation and their use as pharmaceuticals” (Sanofi-Aventis, priority 2005, dated 2010)
# Some entries share one result that the patent states for a list of compounds.
# Target: T1, human PPARalpha (Homo sapiens, UniProt Q07869)
# T1 construct: amino acids S167-Y468; expressed in transfected cells; plasmid pcDNA3
# T1 sequence (Q07869 167-468): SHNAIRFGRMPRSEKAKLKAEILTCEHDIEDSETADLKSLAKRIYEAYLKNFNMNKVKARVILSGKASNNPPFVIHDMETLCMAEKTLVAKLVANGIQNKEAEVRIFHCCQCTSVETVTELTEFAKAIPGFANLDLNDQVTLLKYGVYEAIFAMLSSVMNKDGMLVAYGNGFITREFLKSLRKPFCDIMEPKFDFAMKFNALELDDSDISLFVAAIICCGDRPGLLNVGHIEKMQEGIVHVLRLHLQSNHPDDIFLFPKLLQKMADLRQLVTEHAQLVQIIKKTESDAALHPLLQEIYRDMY
# Assay: Cellular PPARalpha assay (human GAL4 luciferase reporter, stably transfected HEK cell line)
# Assay type: cell-based
# Conditions: range over the examples; units printed in the value (nM to μM)
row,Compound,EC50
1,"COc1cc(OCc2sc(-c3ccc(C(F)(F)F)cc3)nc2CCCN2CCN(C)CC2)ccc1-c1noc(=O)[nH]1 [Example 106, 3-{2-Methoxy-4-[4-[3-(4-methyl-piperazin-1-yl)-propyl]-2-(4-trifluoromethyl-phenyl)-thiazol-5-ylmethoxy]-phenyl}-4H-1,2,4-oxadiazol-5-one]",≥ 5 nM
2,"COc1ccc(-c2nc(C(F)F)c(COc3ccc(-c4noc(=O)[nH]4)c(Cl)c3)s2)cc1 [Example 84, 3-{2-Chloro-4-[4-difluoromethyl-2-(4-methoxy-phenyl)-thiazol-5-ylmethoxy]-phenyl}-4H-[1,2,4]oxadiazol-5-one]",≥ 5 nM
3,"O=c1[nH]c(-c2ccc(OCc3oc(-c4ccc(C(F)(F)F)cc4)nc3COCC(F)(F)F)cc2Cl)no1 [Example 59, 3-{2-Chloro-4-[4-(2,2,2-trifluoro-ethoxymethyl)-2-(4-trifluoromethyl-phenyl)-oxazol-5-ylmethoxy]-phenyl}-4H-[1,2,4]oxadiazol-5-one]",≥ 5 nM
4,"CCN(CC)Cc1nc(-c2ccc(OC)cc2)oc1COc1ccc(-c2noc(=O)[nH]2)c(C)c1 [Example 61, 3-{4-[4-Diethylaminomethyl-2-(4-methoxy-phenyl)-oxazol-5-ylmethoxy]-2-methyl-phenyl}-4H-[1,2,4]oxadiazol-5-one]",≥ 5 nM
5,"Cc1cc(OCc2sc(-c3ccc(C(F)(F)F)cc3)nc2CNCCN2CCOCC2)ccc1-c1noc(=O)[nH]1 [Example 51, 3-{2-Methyl-4-[4-[(2-morpholin-4-yl-ethylamino)-methyl]-2-(4-trifluoromethyl-phenyl)-thiazol-5-ylmethoxy]-phenyl}-4H-[1,2,4]oxadiazol-5-one]",≥ 5 nM
6,"COc1cc(OCc2sc(-c3ccc(C(F)(F)F)cc3)nc2CN2CCC(C(F)(F)F)CC2)c(F)cc1-c1noc(=O)[nH]1 [Example 32, 3-{5-Fluoro-2-methoxy-4-[2-(4-trifluoromethyl-phenyl)-4-(4-trifluoromethyl-piperidin-1-ylmethyl)-thiazol-5-ylmethoxy]-phenyl}-4H-[1,2,4]oxadiazol-5-one]",≥ 5 nM
7,"COc1cc(OCc2sc(-c3ccc(C(F)(F)F)cc3)nc2C[S+](C)[O-])ccc1-c1noc(=O)[nH]1 (stereo not drawn) [Example 90, 3-{4-[4-Methanesulfinylmethyl-2-(4-trifluoromethyl-phenyl)-thiazol-5-ylmethoxy]-2-methoxy-phenyl}4H-1,2,4-oxadiazol-5-one]",≥ 5 nM
8,"COc1ccc(CNCc2nc(-c3ccc(C(F)(F)F)cc3)sc2COc2ccc(-c3noc(=O)[nH]3)c(F)c2)cc1 [Example 28, 3-{2-Fluoro-4-[4-[(4-methoxy-benzylamino)-methyl]-2-(4-trifluoromethyl-phenyl)-thiazol-5-ylmethoxy]-phenyl}-4H-[1,2,4]oxadiazol-5-one]",≥ 5 nM
9,"COc1ccc(-c2nc(COc3ccc(-c4noc(=O)[nH]4)c(C)c3)c(CN3CCCC3)o2)cc1 [Example 67, 3-{4-[2-(4-Methoxy-phenyl)-5-pyrrolidin-1-ylmethyl-oxazol-4-ylmethoxy]-2-methyl-phenyl}-4H-[1,2,4]oxadiazol-5-one]",≥ 5 nM
10,"O=c1[nH]c(-c2ccc(OCc3sc(-c4ccc(C(F)(F)F)cc4)nc3CN3CCOCC3)cc2Cl)no1 [Example 2, 3-{2-Chloro-4-[4-morpholin-4-ylmethyl-2-(4-trifluoromethyl-phenyl)-thiazol-5-ylmethoxy]-phenyl}-4H-[1,2,4]oxadiazol-5-one]",≥ 5 nM
11,"Cc1cc(OCc2sc(-c3ccc(C(F)(F)F)cc3)nc2CNCCN(C)C)ccc1-c1noc(=O)[nH]1 [Example 53, 3-{4-[4-[(2-Dimethylamino-ethylamino)-methyl]-2-(4-trifluoromethyl-phenyl)-thiazol-5-ylmethoxy]-2-methyl-phenyl}-4H-[1,2,4]oxadiazol-5-one]",≥ 5 nM
12,"CN1CCN(Cc2nc(-c3ccc(C(F)(F)F)cc3)sc2COc2ccc(-c3noc(=O)[nH]3)c(F)c2)CC1 [Example 20, 3-{2-Fluoro-4-[4-(4-methyl-piperazin-1-ylmethyl)-2-(4-trifluoromethyl-phenyl)-thiazol-5-ylmethoxy]-phenyl}-4H-[1,2,4]oxadiazol-5-one]",≥ 5 nM
13,"O=c1[nH]c(-c2ccc(OCc3sc(-c4ccc(C(F)(F)F)cc4)nc3CN3CCC(C(F)(F)F)CC3)cc2OC(F)F)no1 [Example 94, 3-{2-Difluoromethoxy-4-[2-(4-trifluoromethyl-phenyl)-4-(4-trifluoromethyl-piperidin-1-ylmethyl)-thiazol-5-ylmethoxy]-phenyl}-4H-1,2,4-oxadiazol-5-one]",≥ 5 nM
14,"COc1cc(OCc2sc(-c3ccc(C(F)(F)F)cc3)nc2CN2CCC(C(F)(F)F)C2)ccc1-c1noc(=O)[nH]1 (racemic) [Example 9, 3-{2-Methoxy-4-[2-(4-trifluoromethyl-phenyl)-4-(3-trifluoromethyl-pyrrolidin-1-ylmethyl)thiazol-5-ylmethoxy]-phenyl}-4H-[1,2,4]oxadiazol-5-one]",≥ 5 nM
15,"Cc1cc(OCc2sc(-c3ccc(C(F)(F)F)cc3)nc2CNCCC2CCCN2C)ccc1-c1noc(=O)[nH]1 (stereo not drawn) [Example 49, 3-{2-Methyl-4-[4-{[2-(1-methyl-pyrrolidin-2-yl)-ethylamino]-methyl}-2-(4-trifluoromethyl-phenyl)-thiazol-5-ylmethoxy]-phenyl}-4H-[1,2,4]oxadiazol-5-one]",≥ 5 nM
16,"COCc1nc(/C=C/c2ccc(C(F)(F)F)cc2)sc1COc1ccc(-c2noc(=O)[nH]2)c(Cl)c1 [Example 58, 3-(2-Chloro-4-{4-methoxymethyl-2-[2-(4-trifluoromethyl-phenyl)-vinyl]-thiazol-5-ylmethoxy}-phenyl)-4H-[1,2,4]oxadiazol-5-one]",≥ 5 nM
17,"CN(CCO)Cc1nc(-c2ccc(C(F)(F)F)cc2)sc1COc1ccc(-c2noc(=O)[nH]2)c(F)c1 [Example 19, 3-{2-Fluoro-4-[4-{[(2-hydroxy-ethyl)-methyl-amino]-methyl}-2-(4-trifluoromethyl-phenyl)-thiazol-5-ylmethoxy]-phenyl}-4H-[1,2,4]oxadiazol-5-one]",≥ 5 nM
18,"COc1cc(OCc2sc(-c3ccc(C(F)(F)F)cc3)nc2CN2CCN(S(C)(=O)=O)CC2)ccc1-c1noc(=O)[nH]1 [Example 42, 3-{4-[4-(4-Methanesulfonyl-piperazin-1-ylmethyl)-2-(4-trifluoromethyl-phenyl)-thiazol-5-ylmethoxy]-2-methoxy-phenyl}-4H-[1,2,4]oxadiazol-5-one]",≥ 5 nM
19,"COc1ccc(-c2nc(COc3ccc(-c4noc(=O)[nH]4)c(C)c3)c(CN3CCOCC3)o2)cc1 [Example 68, 3-{4-[2-(4-Methoxy-phenyl)-5-morpholin-4-ylmethyl-oxazol-4-ylmethoxy]-2-methyl-phenyl}-4H-[1,2,4]oxadiazol-5-one]",≥ 5 nM
20,"O=c1[nH]c(-c2ccc(OCc3sc(-c4ccc(C(F)(F)F)cc4)nc3CNCc3ccco3)cc2F)no1 [Example 25, 3-{2-Fluoro-4-[4-{[(furan-2-ylmethyl)-amino]-methyl}-2-(4-trifluoromethyl-phenyl)-thiazol-5-ylmethoxy]-phenyl}-4H-[1,2,4]oxadiazol-5-one]",≥ 5 nM
21,"COc1cc(OCc2sc(-c3ccc(C(F)(F)F)cc3)nc2CN2CCC(F)CC2)ccc1-c1noc(=O)[nH]1 [Example 7, 3-{4-[4-(4-Fluoro-piperidin-1-ylmethyl)-2-(4-trifluoromethyl-phenyl)-thiazol-5-ylmethoxy]-2-methoxy-phenyl}-4H-[1,2,4]oxadiazol-5-one]",≥ 5 nM
22,"COc1ccc(Cc2nc(C)c(COc3ccc(-c4noc(=O)[nH]4)c(Cl)c3)o2)cc1 [Example 57, 3-{2-Chloro-4-[2-(4-methoxy-benzyl)-4-methyl-oxazol-5-ylmethoxy]-phenyl}-4H-[1,2,4]oxadiazol-5-one]",≥ 5 nM
23,"COc1cc(OCc2sc(-c3ccc(C(F)(F)F)cc3)nc2CN2CC[S+]([O-])CC2)ccc1-c1noc(=O)[nH]1 [Example 88, 3-{2-Methoxy-4-[4-(1-oxo-1λ^4-thiomorpholin-4-ylmethyl)-2-(4-trifluoromethyl-phenyl)-thiazol-5-ylmethoxy]-phenyl}-4H-1,2,4-oxadiazol-5-one]",≥ 5 nM
24,"O=c1[nH]c(-c2ccc(OCc3sc(-c4ccc(C(F)(F)F)cc4)nc3CNCc3ccc(F)cc3)cc2F)no1 [Example 23, 3-{2-Fluoro-4-[4-[(4-fluoro-benzylamino)-methyl]-2-(4-trifluoromethyl-phenyl)-thiazol-5-ylmethoxy]-phenyl}-4H-[1,2,4]oxadiazol-5-one]",≥ 5 nM
25,"O=c1[nH]c(-c2cc(F)c(OCc3sc(-c4ccc(C(F)(F)F)cc4)nc3CN3CCC(C(F)(F)F)CC3)cc2OCC(F)(F)F)no1 [Example 99, 3-{5-Fluoro-2-(2,2,2-trifluoro-ethoxy)-4-[2-(4-trifluoromethyl-phenyl)-4-(4-trifluoromethyl-piperidin-1-ylmethyl)-thiazol-5-ylmethoxy]-phenyl}-4H-1,2,4-oxadiazol-5-one]",≥ 5 nM
26,"COc1cc(OCc2sc(-c3ccc(C(F)(F)F)cc3)nc2CCCN2CCCC2)ccc1-c1noc(=O)[nH]1 [Example 108, 3-{2-Methoxy-4-[4-(3-pyrrolidin-1-yl-propyl)-2-(4-trifluoromethyl-phenyl)-thiazol-5-ylmethoxy]-phenyl}-4H-1,2,4-oxadiazol-5-one]",≥ 5 nM
27,"COc1cc(OCc2sc(-c3ccc(C(F)(F)F)cc3)nc2CCCN2CCC2)ccc1-c1noc(=O)[nH]1 [Example 16, 3-{4-[4-(3-Azetidin-1-yl-propyl)-2-(4-trifluoromethyl-phenyl)-thiazol-5-ylmethoxy]-2-methoxy-phenyl}-4H-[1,2,4]oxadiazol-5-one]",≥ 5 nM
